Results deposited as PubChem BioAssay AID602196 (INSERM, 2012).
In all, the deposit lists about 23,000 reagents; this is an unselected part. Of all reagents, 455 (2%) were called active. 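Active includes both protection and sensitisation; some change values fall well beyond the stated -50 to +50 range.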 Further read-outs or replicates are left out here. Not stated in the record: the amount of reagent.

Test: 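Modifiers of cisplatin sensitivity in A549 cells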
System: human A549 lung cancer cells
Reagents: siRNA pair against human genes
Time to read-out: 48 h transfection before cisplatin; time from cisplatin to read-out not stated
Treatment: cisplatin at a dose killing half of control-siRNA cells; exact dose and duration not given
Measured: 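Cisplatin cell death as a shift from the 50% death seen with control siRNA; siRNAs toxic or growth-blocking alone scored 0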
Scale: two-siRNA summed score (-2 to +2): higher = both siRNAs protect from cisplatin killing; -2 means both sensitise
Rule for the call: 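siRNAs harmful alone (LDH or WST-1) get 0; others get +1 for less and -1 for more cisplatin killing; genes are active when the two siRNAs give the same sign, summing to ±2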
Meaning of the calls: active = both siRNAs shift cisplatin killing the same way; inactive = no consistent shift, or siRNA harmful alone

gene knocked down	two-siRNA summed score (-2 to +2)	Call
TMEM190	0	inactive
LOC440101	2	active
ZNF615	-1	inactive
HCK	0	inactive
SPG7	0	inactive
ACTR1A	1	inactive
TUBGCP5	-1	inactive
RNASE3	0	inactive
RAD50	0	inactive
HERC3	0	inactive
CCDC185	0	inactive
PRSS27	0	inactive
MIPEP	-1	inactive
XPO6	0	inactive
CTAG2	1	inactive
PHACTR2-AS1	0	inactive
ZNF205	0	inactive
ETV3L	0	inactive
PPP2R2A	-1	inactive
LOC441307	0	inactive
HUNK	1	inactive
TXLNA	1	inactive
OR2L13	0	inactive
PRPF40B	0	inactive
C1QTNF7	0	inactive
WDHD1	-1	inactive
BLOC1S5	-1	inactive
NRBP2	1	inactive
MEX3C	0	inactive
ADRB1	-1	inactive
GTF3C4	-1	inactive
RPS19BP1	0	inactive
LOC400763	0	inactive
FIBIN	0	inactive
SLC23A1	0	inactive
NKPD1	0	inactive
CCT3	-1	inactive
FOSB	0	inactive
HMGN1	0	inactive
DRC11	0	inactive
NBL1	0	inactive
MC4R	0	inactive
CYTH1	0	inactive

Continued, starting with the last 4 of the part before.
gene knocked down	two-siRNA summed score (-2 to +2)	Call
DRC11	0	inactive
NBL1	0	inactive
MC4R	0	inactive
CYTH1	0	inactive
SGCG	0	inactive
LOC442562	0	inactive
MAP2K5	0	inactive
LOC441465	0	inactive
FBXW7	0	inactive
RAB44	0	inactive
SAMD8	0	inactive
MYL12B	1	inactive
LOC388565	0	inactive
LOC130355	0	inactive
FLJ31033	0	inactive
LOC387833	0	inactive
ZNF570	1	inactive
PPP2R3B	0	inactive
YIF1A	0	inactive
ELANE	0	inactive
HTRA1	0	inactive
FLJ36032	0	inactive
OR52A1	0	inactive
NKX2-3	0	inactive
LINC03043	0	inactive
ZNF510	0	inactive
GPR156	0	inactive
ZFP30	1	inactive
NET1	0	inactive
SNAPC5	2	active
BMAL2	0	inactive
CCL2	0	inactive
SRFBP1	0	inactive
GZMB	-1	inactive
